Data: PubChem BioAssay AID504467 (National Center for Advancing Translational Sciences (NCATS), 2011)
The whole screen tested about 330,000 compounds, of which about 7,700 (2.3%) were called active. The inconclusive results got no clear call from the source; some entries with a clear call stand among them for comparison. The call rests on the fitted dose curve; in most records, active means well fitted inhibition curve with a large enough effect; inconclusive means small, poorly fitted or top-dose-only effect, or effect the other way; inactive means flat fitted curve, though single readings scatter. Potencies beside an inconclusive call are fits to weak or partial responses and may not hold up.

test: qHTS screen for small molecules that inhibit ELG1-dependent DNA repair in human embryonic kidney (HEK293T) cells expressing luciferase-tagged ELG1; details: HEK293T ELG1-luciferase reporter, luminescence, 16 h, DNA damage induced by 5-fluorouridine; series mostly up to 46.1 µM; further: nearly all actives have a fitted effect of over 55% in size
Procedure, shortened: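 5-Fluorouridine DNA damage + compound/DMSO, 2,000 cells/well, 16 h, 37 °C/5% CO2. ONE-Glo, 30 min RT, luminescence. Readout = decrease in reporter signal.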
Potency means the concentration at half of the fitted maximal effect.

Row | SMILES | Potency
1 | COc1cc2c(cc1OC)C(C(=O)N(C)C1CCCCC1)C1CCCCN1C2=O (centres undefined) | inconclusive: 29.1 µM [activator, single point]
2 | CN1CCN(c2ccc([N+](=O)[O-])c(NCc3ccco3)c2)CC1 | inactive
3 | O=C(COc1ccc(Cl)cc1)N1CCN(C/C=C/c2ccccc2)CC1 | inactive
4 | Oc1ccccc1-[n+]1c(-c2ccccc2)cc(-c2ccccc2)cc1-c1ccccc1 | inconclusive: 16.4 µM [inhibitor, single point]
5 | CC/C(=N\NC(=O)c1ccccc1O)c1c(O)n(C2CCCCC2)c(=O)[nH]c1=O | inactive
6 | Cc1ncc2n1-c1ccc(Cl)cc1C(c1ccccc1F)=NC2 | inconclusive: 16.4 µM [activator, partial curve]
7 | c1ccc2c(N3CCNCC3)nsc2c1 | inconclusive: 29.1 µM [inhibitor, single point]
8 | COCCNC(=O)N1[C@H]2CC[C@@H]1C(C(=O)OC)=C(c1ccc(OC)c(OC)c1)C2 | inconclusive: 0.0146 µM [activator, full curve, poor fit]
9 | C=CC[C@H](CC(=O)N(CCO)Cc1ccccc1)C(=O)NC[C@H](OC(=O)[C@@H](CC=C)CC(=O)OC(C)(C)C)c1ccccc1 | active: 20.6 µM
10 | O=C(N/N=C/c1c(O)n(Cc2ccc(F)cc2)c(=S)[nH]c1=O)c1ccncc1 | inactive
11 | Cc1nn(Cc2ccccc2Cl)c(Cl)c1C(=O)O | inactive
12 | Cc1ccc2nc(N3CCC(C(=O)N4CCC5(CC4)OCCO5)CC3)sc2c1 | inconclusive: 14.6 µM [activator, partial curve, poor fit]
13 | COC(=O)C1=C(c2ccc(OCc3ccccc3)cc2)C[C@@H]2CC[C@H]1N2C(=O)NCc1cccc(OC)c1 | inconclusive: 32.6 µM [inhibitor, single point]
14 | CCOc1ccc(N2C(=O)/C(=C/c3ccco3)C(=O)NC2=S)cc1 | inactive
15 | Cc1cccc(C2=NCC(=O)N(CC(=O)NCc3ccco3)c3sc4c(c32)CCCC4)c1 | inconclusive: 20.6 µM [inhibitor, single point]
16 | COC(=O)C1=C(c2ccc(F)cc2OCc2ccccc2)C[C@@H]2CC[C@H]1N2C(=O)NCc1cccc(OC)c1 | inconclusive: 23.1 µM [inhibitor, single point]
17 | COc1ccc(OC)c(-n2c(O)c(C=Nc3c(C)n(C)n(-c4ccccc4)c3=O)c(=O)[nH]c2=S)c1 | inactive
18 | Cc1csc(N2CCc3ccccc32)n1 | inconclusive: 29.1 µM [activator, single point]
19 | O=[N+]([O-])c1ccc(-c2ccc(C=Nc3cccc4ccccc34)o2)cc1 | inconclusive: 32.6 µM [activator, partial curve, poor fit]

3 compounds already listed, sorted by SMILES length, smallest number first.
Row | SMILES | Potency
11 | Cc1nn(Cc2ccccc2Cl)c(Cl)c1C(=O)O | inactive
14 | CCOc1ccc(N2C(=O)/C(=C/c3ccco3)C(=O)NC2=S)cc1 | inactive
5 | CC/C(=N\NC(=O)c1ccccc1O)c1c(O)n(C2CCCCC2)c(=O)[nH]c1=O | inactive
